The test system of data set [1] is leukemia HL-60. As to the kind of experiment: cells. The following applies: Homo sapiens, HL-60, 48 h, read-out: In vitro cytotoxicity IC50. As for the experimental part: (§1) The antitumor experiment was conducted on 59 human tumor cell lines derived from nine different human tissues, following the procedure of the Drug Evaluation Branch at the NCI, Bethesda, MD.[33]

Data set [2] relates to MDA-MB-231. The experiment in a line: cells. The note with it: Homo sapiens, MDA-MB-231, 48 h, read-out: In vitro cytotoxicity IC50. How it is done: as §1
Data set [3] is described as follows: in vitro. The following applies: human. How it is done:
A normal fibroblast-like fetal lung cell line (WI-38) was used to further investigate the therapeutic safety of the newly synthesized hybrids and evaluate their selective cytotoxicity toward normal and tumor cells.[33,77]
as §1

The subject of data set [4] is breast adenocarcinoma MCF-7. As to the kind of experiment: cells. The following applies: Homo sapiens, MCF7, 48 h, read-out: In vitro cytotoxicity IC50.

The structures appear in SMILES notation.

Usually IC50 stands for the point on the concentration scale where inhibition reaches its midpoint. As to `CN[C@@H]1C[C@H]2O[C@@](C)([C@@H]1OC)n1c3ccccc3c3c4c(c5c6ccccc6n2c5c31)C(=O)NC4` [Staurosporine, reference compound], the IC50 was found to be 5.19 ± 0.23 µM in data set [1], 5.81 ± 0.26 µM in data set [2], 20.2 ± 0.9 µM in data set [3] and 3.84 ± 0.17 µM in data set [4].

These data come from paper PMC11240878, “Synthesis, enzyme inhibition assay, and molecular modeling study of novel pyrazolines linked to 4-methylsulfonylphenyl scaffold: antitumor activity and cell cycle analysis” (RSC Advances, 2024).
